Results published in patent US8846681B2, “Pyrimidyl cyclopentanes as AKT protein kinase inhibitors” (Array BioPharma, Inc., priority 2006, dated 2014).
Some of these results come from one statement about several compounds together.

Amino acid sequences for entries named in this document (tags omitted). A change or cut given only in a name is not applied to a line headed by its entry.
UniProt P31749: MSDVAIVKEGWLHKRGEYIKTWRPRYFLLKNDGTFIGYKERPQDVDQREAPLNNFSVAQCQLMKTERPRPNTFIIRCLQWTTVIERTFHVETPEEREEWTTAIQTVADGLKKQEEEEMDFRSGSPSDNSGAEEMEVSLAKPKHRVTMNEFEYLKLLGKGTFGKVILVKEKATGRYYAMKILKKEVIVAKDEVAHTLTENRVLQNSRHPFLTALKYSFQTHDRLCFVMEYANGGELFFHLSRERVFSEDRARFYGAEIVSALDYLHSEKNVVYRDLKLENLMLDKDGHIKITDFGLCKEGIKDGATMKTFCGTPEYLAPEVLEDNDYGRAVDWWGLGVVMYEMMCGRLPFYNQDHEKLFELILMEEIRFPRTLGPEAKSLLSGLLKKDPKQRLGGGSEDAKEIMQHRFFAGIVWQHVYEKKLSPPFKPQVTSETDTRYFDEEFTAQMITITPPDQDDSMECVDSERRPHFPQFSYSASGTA

Target: full-length human recombinant active AKT-1 (Homo sapiens, UniProt P31749)
Assay: AKT-1 Kinase Assay (IMAP fluorescence polarization)
Type: biochemical
Details: phosphorylation of fluorescently-labeled peptide (Crosstide), IMAP kit

((3S,4R)-4-(4-chloro-2-fluorophenyl)pyrrolidin-3-yl)(4-((R)-5-methyl-6,7-dihydro-5H-cyclopenta[d]pyrimidin-4-yl)piperazin-1-yl)methanone dihydrochloride and ((3R,4S)-4-(4-chloro-2-fluorophenyl)pyrrolidin-3-yl)(4-((R)-5-methyl-6,7-dihydro-5H-cyclopenta[d]pyrimidin-4-yl)piperazin-1-yl)methanone dihydrochloride [Example 15]
IC50: < 10 µM
